The list shows a part of the results.
Assays:
Assay in all cases: log2 fold change, soluble protein after heating vs DMSO (PISA); higher = thermal stabilisation; K562 cells, 10 uM, 30 min; active = over 0.2 and 3.5 SD of the protein, either way, in both replicates (recomputed)
[1] = compound: CC[C@@H]1C(=O)N(C)c2cnc(Nc3ccc(C(=O)NC4CCN(C)CC4)cc3OC)nc2N1C1CCCC1
Procedure, shortened: (§1)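 Soluble protein was defined as the supernatant after 21,000xg for 90 min. It came from K562 cells at 2×10^6 cells/mL given 10 μM compound for 30 min, heated in aliquots for 3 min across 48°C-58°C, pooled, and extracted in PBS with 0.5% NP-40 at 4°C, and was quantified by TMTpro 16plex LC-MS/MS with equalised channel sums. Thermal stability against control samples, from duplicates, is reported as log2 fold change.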

The chains behind the UniProt entries cited, without tags or fusion partners. Where a name states a change or a piece, a line headed by the entry shows the natural chain unless it says otherwise.
UniProt Q96S66: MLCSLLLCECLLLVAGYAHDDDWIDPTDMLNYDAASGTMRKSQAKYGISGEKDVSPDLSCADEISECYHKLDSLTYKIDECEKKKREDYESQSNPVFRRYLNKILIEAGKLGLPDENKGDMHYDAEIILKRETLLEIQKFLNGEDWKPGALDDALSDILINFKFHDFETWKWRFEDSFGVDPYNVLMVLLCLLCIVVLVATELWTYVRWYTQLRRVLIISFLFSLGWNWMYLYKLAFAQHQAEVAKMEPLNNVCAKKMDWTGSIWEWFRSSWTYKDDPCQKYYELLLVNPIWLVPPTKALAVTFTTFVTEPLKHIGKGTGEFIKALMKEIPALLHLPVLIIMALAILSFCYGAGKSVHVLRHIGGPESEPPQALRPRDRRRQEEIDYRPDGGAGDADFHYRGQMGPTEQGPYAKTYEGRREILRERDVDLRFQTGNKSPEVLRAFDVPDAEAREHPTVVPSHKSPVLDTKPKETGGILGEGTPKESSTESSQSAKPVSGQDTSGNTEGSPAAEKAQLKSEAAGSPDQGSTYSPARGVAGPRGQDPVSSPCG
UniProt Q8WUX9: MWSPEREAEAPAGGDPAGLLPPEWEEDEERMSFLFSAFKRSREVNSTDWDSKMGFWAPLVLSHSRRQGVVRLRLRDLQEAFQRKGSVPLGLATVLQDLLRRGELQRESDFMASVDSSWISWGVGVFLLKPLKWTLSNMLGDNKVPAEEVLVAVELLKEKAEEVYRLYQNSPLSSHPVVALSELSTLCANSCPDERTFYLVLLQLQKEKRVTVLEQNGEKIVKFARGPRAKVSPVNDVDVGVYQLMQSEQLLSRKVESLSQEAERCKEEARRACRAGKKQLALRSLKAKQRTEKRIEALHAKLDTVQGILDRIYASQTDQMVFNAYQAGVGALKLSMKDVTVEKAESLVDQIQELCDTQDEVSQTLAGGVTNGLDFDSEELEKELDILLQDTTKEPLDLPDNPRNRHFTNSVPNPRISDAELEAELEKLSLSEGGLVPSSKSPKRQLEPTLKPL
UniProt Q6P4Q7: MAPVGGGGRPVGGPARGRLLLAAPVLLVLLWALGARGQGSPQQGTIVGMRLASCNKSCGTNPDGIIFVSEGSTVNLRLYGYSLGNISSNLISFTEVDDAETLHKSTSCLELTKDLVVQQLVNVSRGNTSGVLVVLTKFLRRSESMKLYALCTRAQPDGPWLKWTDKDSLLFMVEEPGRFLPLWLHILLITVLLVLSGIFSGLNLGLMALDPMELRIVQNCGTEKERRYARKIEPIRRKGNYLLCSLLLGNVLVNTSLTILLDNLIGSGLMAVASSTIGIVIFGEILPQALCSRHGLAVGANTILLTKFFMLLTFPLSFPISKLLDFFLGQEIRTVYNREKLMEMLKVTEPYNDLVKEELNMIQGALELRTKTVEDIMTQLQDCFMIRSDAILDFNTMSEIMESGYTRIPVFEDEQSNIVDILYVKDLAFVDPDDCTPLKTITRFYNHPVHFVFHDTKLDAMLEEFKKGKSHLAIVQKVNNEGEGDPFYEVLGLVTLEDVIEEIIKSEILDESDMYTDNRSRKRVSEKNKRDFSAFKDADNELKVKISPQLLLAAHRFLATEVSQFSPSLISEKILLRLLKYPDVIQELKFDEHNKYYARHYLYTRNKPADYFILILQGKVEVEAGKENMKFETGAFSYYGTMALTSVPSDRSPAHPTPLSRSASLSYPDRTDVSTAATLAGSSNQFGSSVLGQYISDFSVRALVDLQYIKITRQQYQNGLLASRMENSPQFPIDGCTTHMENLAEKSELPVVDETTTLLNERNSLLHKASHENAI
UniProt P05452, whole entry, looked up: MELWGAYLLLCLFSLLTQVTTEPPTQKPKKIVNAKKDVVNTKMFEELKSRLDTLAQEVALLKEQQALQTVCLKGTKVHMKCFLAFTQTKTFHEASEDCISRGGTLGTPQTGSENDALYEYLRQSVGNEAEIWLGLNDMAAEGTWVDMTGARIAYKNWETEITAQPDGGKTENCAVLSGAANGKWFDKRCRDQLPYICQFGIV
UniProt Q9NRG0: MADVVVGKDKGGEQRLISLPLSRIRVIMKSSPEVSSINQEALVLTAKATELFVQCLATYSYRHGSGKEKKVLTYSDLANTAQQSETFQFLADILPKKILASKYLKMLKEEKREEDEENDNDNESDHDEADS
UniProt Q6FI81: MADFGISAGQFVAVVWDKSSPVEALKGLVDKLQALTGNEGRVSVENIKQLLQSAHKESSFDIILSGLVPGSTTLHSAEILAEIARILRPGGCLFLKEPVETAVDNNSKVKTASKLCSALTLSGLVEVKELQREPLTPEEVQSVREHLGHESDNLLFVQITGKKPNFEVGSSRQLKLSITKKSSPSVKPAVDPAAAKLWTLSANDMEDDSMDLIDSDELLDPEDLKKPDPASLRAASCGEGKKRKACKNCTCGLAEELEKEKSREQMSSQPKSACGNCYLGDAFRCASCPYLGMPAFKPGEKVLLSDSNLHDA
UniProt P30622: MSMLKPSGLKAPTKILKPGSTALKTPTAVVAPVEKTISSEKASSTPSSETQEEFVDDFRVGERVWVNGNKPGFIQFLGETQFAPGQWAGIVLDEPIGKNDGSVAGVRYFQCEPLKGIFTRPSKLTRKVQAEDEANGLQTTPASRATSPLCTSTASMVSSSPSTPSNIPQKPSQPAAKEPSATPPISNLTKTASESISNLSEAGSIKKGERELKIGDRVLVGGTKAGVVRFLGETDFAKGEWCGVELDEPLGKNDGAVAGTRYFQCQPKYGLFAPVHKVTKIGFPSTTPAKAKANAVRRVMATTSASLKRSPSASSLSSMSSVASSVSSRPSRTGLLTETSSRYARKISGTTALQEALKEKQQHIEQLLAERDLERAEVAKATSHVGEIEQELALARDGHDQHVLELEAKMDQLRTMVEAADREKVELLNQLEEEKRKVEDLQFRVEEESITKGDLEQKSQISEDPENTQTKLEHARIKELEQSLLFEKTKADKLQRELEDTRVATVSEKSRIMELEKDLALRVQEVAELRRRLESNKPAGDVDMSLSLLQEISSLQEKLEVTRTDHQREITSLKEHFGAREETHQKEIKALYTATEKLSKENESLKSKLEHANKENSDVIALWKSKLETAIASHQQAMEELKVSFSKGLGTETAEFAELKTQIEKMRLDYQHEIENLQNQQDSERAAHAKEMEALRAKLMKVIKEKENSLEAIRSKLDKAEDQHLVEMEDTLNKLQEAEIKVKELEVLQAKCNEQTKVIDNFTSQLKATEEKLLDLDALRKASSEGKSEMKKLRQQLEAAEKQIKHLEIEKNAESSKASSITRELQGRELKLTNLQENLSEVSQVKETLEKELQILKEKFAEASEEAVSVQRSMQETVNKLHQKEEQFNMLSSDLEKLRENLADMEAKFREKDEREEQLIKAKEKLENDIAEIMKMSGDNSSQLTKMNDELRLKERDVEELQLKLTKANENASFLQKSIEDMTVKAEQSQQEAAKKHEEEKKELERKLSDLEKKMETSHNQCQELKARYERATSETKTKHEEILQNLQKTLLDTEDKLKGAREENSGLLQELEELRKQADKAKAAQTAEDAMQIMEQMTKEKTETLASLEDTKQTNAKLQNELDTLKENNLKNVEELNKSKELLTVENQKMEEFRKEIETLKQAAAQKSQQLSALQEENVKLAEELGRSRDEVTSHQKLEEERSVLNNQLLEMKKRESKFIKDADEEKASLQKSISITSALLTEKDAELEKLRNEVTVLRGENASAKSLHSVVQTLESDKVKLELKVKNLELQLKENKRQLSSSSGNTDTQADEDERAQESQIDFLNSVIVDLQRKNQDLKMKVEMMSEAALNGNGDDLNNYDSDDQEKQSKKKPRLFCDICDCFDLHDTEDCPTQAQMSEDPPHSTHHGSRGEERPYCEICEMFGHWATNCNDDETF
UniProt Q9NYJ1, whole entry, looked up: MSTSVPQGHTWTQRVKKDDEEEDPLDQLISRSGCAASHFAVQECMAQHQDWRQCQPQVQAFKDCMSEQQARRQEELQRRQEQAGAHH
UniProt Q9GZY4: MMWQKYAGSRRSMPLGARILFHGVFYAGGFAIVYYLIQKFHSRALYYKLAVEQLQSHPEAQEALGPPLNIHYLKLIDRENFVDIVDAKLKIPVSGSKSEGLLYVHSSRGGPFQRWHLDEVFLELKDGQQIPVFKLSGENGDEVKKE
UniProt O14967: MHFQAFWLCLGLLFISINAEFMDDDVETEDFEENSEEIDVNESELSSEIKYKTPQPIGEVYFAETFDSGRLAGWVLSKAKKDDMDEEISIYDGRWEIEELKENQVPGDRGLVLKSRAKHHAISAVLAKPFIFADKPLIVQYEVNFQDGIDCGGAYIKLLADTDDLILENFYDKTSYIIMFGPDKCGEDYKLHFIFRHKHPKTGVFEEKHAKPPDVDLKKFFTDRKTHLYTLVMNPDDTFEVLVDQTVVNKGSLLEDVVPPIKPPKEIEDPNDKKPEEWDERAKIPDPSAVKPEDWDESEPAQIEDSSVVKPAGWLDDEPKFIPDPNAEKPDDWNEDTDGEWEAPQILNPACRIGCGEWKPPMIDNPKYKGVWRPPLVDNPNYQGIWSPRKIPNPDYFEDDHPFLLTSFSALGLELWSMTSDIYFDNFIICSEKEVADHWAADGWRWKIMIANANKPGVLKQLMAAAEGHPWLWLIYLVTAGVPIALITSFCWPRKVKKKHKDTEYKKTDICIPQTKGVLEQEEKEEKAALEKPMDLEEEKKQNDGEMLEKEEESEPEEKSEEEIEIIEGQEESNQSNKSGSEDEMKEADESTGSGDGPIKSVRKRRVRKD
UniProt Q9H6Q4: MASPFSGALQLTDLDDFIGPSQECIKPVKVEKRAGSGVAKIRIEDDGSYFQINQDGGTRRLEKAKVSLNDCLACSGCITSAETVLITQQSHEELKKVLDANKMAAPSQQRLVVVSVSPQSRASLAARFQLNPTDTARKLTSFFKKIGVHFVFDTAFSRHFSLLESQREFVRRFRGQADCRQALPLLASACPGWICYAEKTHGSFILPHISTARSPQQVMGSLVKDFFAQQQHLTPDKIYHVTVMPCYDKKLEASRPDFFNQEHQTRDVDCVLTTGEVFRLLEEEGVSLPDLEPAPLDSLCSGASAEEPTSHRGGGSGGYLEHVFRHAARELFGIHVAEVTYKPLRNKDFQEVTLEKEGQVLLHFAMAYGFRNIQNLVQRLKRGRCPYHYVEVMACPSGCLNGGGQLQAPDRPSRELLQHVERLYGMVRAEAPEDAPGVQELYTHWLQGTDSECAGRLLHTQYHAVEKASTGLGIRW
UniProt P39059: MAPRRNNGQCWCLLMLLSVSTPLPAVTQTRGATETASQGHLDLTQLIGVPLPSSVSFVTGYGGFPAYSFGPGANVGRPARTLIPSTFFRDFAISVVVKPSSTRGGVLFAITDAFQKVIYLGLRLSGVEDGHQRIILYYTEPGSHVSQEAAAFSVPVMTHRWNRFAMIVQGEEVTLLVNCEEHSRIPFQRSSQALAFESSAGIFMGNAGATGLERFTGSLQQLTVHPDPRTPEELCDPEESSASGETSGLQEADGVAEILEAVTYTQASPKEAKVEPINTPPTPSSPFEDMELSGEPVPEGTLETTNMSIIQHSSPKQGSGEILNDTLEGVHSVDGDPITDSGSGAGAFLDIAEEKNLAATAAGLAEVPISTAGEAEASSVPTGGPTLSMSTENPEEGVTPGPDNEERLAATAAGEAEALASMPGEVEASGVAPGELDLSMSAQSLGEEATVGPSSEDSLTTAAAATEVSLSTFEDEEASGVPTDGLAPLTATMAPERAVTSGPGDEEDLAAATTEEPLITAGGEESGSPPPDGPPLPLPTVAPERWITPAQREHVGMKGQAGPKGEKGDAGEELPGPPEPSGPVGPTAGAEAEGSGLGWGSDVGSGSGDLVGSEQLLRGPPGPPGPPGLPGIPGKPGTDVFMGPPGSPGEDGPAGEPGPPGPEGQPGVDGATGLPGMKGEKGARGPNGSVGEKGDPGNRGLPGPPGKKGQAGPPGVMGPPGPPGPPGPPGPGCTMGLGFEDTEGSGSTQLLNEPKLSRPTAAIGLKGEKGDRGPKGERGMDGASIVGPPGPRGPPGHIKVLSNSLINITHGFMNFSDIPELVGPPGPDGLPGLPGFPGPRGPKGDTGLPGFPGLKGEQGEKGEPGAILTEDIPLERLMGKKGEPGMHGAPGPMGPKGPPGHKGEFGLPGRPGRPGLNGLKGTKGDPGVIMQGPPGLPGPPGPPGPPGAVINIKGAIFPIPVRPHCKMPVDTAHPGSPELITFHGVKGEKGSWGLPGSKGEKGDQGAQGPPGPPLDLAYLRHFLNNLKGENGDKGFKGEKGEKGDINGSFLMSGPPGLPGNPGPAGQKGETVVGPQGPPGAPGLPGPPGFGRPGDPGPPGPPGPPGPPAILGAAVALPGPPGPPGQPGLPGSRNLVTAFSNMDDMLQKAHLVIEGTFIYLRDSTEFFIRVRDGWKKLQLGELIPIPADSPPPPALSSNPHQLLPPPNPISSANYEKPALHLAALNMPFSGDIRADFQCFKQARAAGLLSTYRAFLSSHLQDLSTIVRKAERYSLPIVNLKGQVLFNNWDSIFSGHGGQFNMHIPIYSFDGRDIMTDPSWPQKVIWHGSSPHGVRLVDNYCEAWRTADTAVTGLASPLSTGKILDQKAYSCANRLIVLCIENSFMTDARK

volasertib = compound: CC[C@@H]1C(=O)N(C)c2cnc(Nc3ccc(C(=O)N[C@H]4CC[C@H](N5CCN(CC6CC6)CC5)CC4)cc3OC)nc2N1C(C)C [volasertib]
Procedure, shortened: as §1

[2] = compound: CC[C@H](C)N1C=C(C2=C(C=C(C=C21)C3=CN=C(C=C3)N4CCNCC4)C(=O)NCC5=C(C=C(NC5=O)C)C)C
Procedure, shortened: as §1

epoxomicin = compound: CC[C@H](C)[C@@H](C(=O)N[C@@H]([C@@H](C)O)C(=O)N[C@@H](CC(C)C)C(=O)[C@]1(CO1)C)NC(=O)[C@H]([C@@H](C)CC)N(C)C(=O)C [epoxomicin]
Procedure, shortened: as §1

[3] = compound: CCn1c(C(=O)N(C2CC2)C2CC2)cc2c3c(ncn3C)c(Nc3cc(C)n(C)n3)nc21
Procedure, shortened: as §1

[4] = compound: CCn1cc(-c2ccnc3[nH]c(-c4cccc(CN(C)C)c4)cc23)c(-c2ccc(NC(=O)N(C)C)cc2)n1
Procedure, shortened: as §1

[5] = compound: CN(C)CC(=O)Nc1ccc2[nH]c(=O)c3ccccc3c2c1
Procedure, shortened: as §1

rosiglitazone = compound: CN(CCOC1=CC=C(C=C1)C[C@H]2C(=O)NC(=O)S2)C3=CC=CC=N3 (racemic) [rosiglitazone]
Procedure, shortened: as §1

[6] = compound: CN1C2=C(C3=C1C(=O)N(N=C3)CC4=CC(=CC=C4)N)SC(=C2)S(=O)C
Procedure, shortened: as §1

[7] = compound: CN1CCC(CNc2ccc3ncc(-c4cccc(OC(F)(F)F)c4)n3n2)CC1
Procedure, shortened: as §1

saracatinib = compound: CN1CCN(CCOc2cc(OC3CCOCC3)c3c(Nc4c(Cl)ccc5c4OCO5)ncnc3c2)CC1 [saracatinib]
Procedure, shortened: as §1

sotrastaurin = compound: CN1CCN(c2nc(C3=C(c4c[nH]c5ccccc45)C(=O)NC3=O)c3ccccc3n2)CC1 [sotrastaurin]
Procedure, shortened: as §1

alvocidib = compound: CN1CC[C@H](c2c(O)cc(O)c3c(=O)cc(-c4ccccc4Cl)oc23)[C@H](O)C1 [alvocidib]
Procedure, shortened: as §1

Tubastatin A = compound: CN1CCc2c(c3ccccc3n2Cc2ccc(C(=O)NO)cc2)C1 [Tubastatin A]
Procedure, shortened: as §1

[8] = compound: CNC(=O)C1=CC=CC=C1NC2=NC(=NC=C2Cl)NC3=C(C=C(C=C3)N4CCOCC4)OC
Procedure, shortened: as §1

defactinib = compound: CNC(=O)c1ccc(Nc2ncc(C(F)(F)F)c(NCc3nccnc3N(C)S(C)(=O)=O)n2)cc1 [defactinib]
Procedure, shortened: as §1

rucaparib = compound: CNCc1ccc(-c2[nH]c3cc(F)cc4c3c2CCNC4=O)cc1 [rucaparib]
Procedure, shortened: as §1

[9] = compound: CNc1nc(-c2ccc3c(N)n[nH]c3c2)cc(N2C[C@@H](C(=O)NC3CCCCC3)CC[C@H]2C)n1
Procedure, shortened: as §1

encorafenib = compound: COC(=O)N[C@@H](C)CNc1nccc(-c2cn(C(C)C)nc2-c2cc(Cl)cc(NS(C)(=O)=O)c2F)n1 [encorafenib]
Procedure, shortened: as §1

[10] = compound: COC(=O)[C@H](CCSC)NC(=O)C1=C(C=C(C=C1)NC[C@H](CS)N)C2=CC=CC=C2
Procedure, shortened: as §1

Measured: log2 fold change

CLCC1 (UniProt Q96S66)
inactive: [1] 0.029 | volasertib -0.025 | [2] -0.047 | epoxomicin -0.025 | [3] 0.013 | [4] 0.009 | [5] 0.018 | rosiglitazone 0.023 | [6] -0.052 | [7] 0.022 | saracatinib -0.002 | sotrastaurin 0.028 | alvocidib -0.024 | Tubastatin A -0.021 | [8] -0.018 | defactinib -0.027 | rucaparib -0.062 | [9] -0.058 | encorafenib -0.004 | [10] 0.029

CHMP7 (UniProt Q8WUX9)
inactive: [1] -0.015 | volasertib -0.379 | [2] 0.042 | epoxomicin 0.071 | [3] -0.004 | [4] 0.061 | rosiglitazone 0.162 | [6] 0.181 | [7] -0.158 | saracatinib -0.078 | sotrastaurin -0.091 | alvocidib -0.015 | Tubastatin A -0.076 | [8] 0.01 | rucaparib -0.147 | [9] 0.04 | encorafenib 0.078

CNNM4 (UniProt Q6P4Q7)
inactive: [1] -0.191 | volasertib -0.219 | [2] 0.115 | epoxomicin -0.022 | [3] -0.067 | [4] 0.055 | [5] 0.009 | rosiglitazone 0.035 | [6] -0.02 | [7] -0.007 | saracatinib 0.232 | sotrastaurin 0.043 | alvocidib -0.039 | Tubastatin A 0.04 | [8] -0.012 | defactinib -0.106 | rucaparib 0.106 | [9] 0.055 | encorafenib -0.098 | [10] 0.004

CLCN6 isoform 5 (UniProt P51797)
inactive: [1] -0.069 | volasertib -0.076 | [2] 0.007 | epoxomicin 0.058 | [3] 0.053 | [4] -0.136 | [5] -0.079 | rosiglitazone 0.034 | [6] -0.043 | [7] -0.344 | saracatinib -0.098 | sotrastaurin 0.166 | alvocidib 0.141 | [8] 0.086 | defactinib 0.011 | rucaparib 0.1 | [9] -0.033 | encorafenib 0.094 | [10] -0.179

CLEC3B (UniProt P05452)
inactive: [1] -0.099 | volasertib -0.126 | [2] -0.154 | epoxomicin -0.62 | [3] -0.272 | [5] -0.166 | rosiglitazone 0.098 | [6] 0.323 | saracatinib 0.029 | sotrastaurin 0.342 | alvocidib 0.145 | Tubastatin A -0.137 | [8] -0.12 | defactinib 0.112 | rucaparib -0.021 | [9] -0.054 | encorafenib 0.005 | [10] 0.147

CHRAC1 (UniProt Q9NRG0)
inactive: [1] 0.015 | volasertib -0.061 | [2] -0.006 | epoxomicin -0.032 | [3] 0.003 | [4] -0.145 | [5] 0.032 | rosiglitazone 0.121 | [6] -0.103 | [7] 0.063 | saracatinib 0.062 | sotrastaurin 0.012 | alvocidib -0.084 | Tubastatin A -0.05 | [8] -0.053 | defactinib -0.075 | rucaparib -0.052 | [9] -0.045 | encorafenib 0.043 | [10] 0.028

Pulled one by one from the list above, 2 records:
CLEC3B (UniProt P05452)
inactive: [1] -0.099 | volasertib -0.126 | [2] -0.154 | epoxomicin -0.62 | [3] -0.272 | [5] -0.166 | rosiglitazone 0.098 | [6] 0.323 | saracatinib 0.029 | sotrastaurin 0.342 | alvocidib 0.145 | Tubastatin A -0.137 | [8] -0.12 | defactinib 0.112 | rucaparib -0.021 | [9] -0.054 | encorafenib 0.005 | [10] 0.147

CHRAC1 (UniProt Q9NRG0)
inactive: [1] 0.015 | volasertib -0.061 | [2] -0.006 | epoxomicin -0.032 | [3] 0.003 | [4] -0.145 | [5] 0.032 | rosiglitazone 0.121 | [6] -0.103 | [7] 0.063 | saracatinib 0.062 | sotrastaurin 0.012 | alvocidib -0.084 | Tubastatin A -0.05 | [8] -0.053 | defactinib -0.075 | rucaparib -0.052 | [9] -0.045 | encorafenib 0.043 | [10] 0.028

Later entries.

CIAPIN1 (UniProt Q6FI81)
inactive: [1] -0.034 | volasertib -0.1 | [2] 0.036 | epoxomicin 0.037 | [3] 0.009 | [4] -0.037 | [5] 0.004 | rosiglitazone 0.045 | [6] -0.079 | [7] -0.034 | saracatinib -0.009 | sotrastaurin -0.03 | alvocidib -0.073 | Tubastatin A -0.002 | [8] 0.018 | defactinib -0.084 | rucaparib -0.102 | [9] -0.002 | encorafenib 0.03 | [10] -0.032

CLIP1 isoform 1 (UniProt P30622)
inactive: [1] 0.017 | volasertib 0.026 | [2] -0.032 | epoxomicin -0.002 | [3] 0.013 | [4] 0.008 | [5] -0.005 | rosiglitazone -0.001 | [6] -0.057 | [7] -0.023 | saracatinib 0.059 | sotrastaurin 0.022 | alvocidib -0.028 | Tubastatin A -0.02 | [8] 0.003 | defactinib -0.009 | rucaparib -0.037 | [9] -0.012 | encorafenib -0.044 | [10] 0.025

COA4 isoform 2 (UniProt Q9NYJ1)
inactive: [1] 0.035 | volasertib 0.006 | [2] -0.044 | epoxomicin 0.45 | [3] -0.007 | [4] 0.122 | rosiglitazone 0.025 | [6] 0.072 | [7] 0.094 | saracatinib 0.057 | sotrastaurin 0.071 | alvocidib 0.234 | [8] -0.006 | rucaparib 0.065 | [9] -0.168 | encorafenib -0.124

COA1 (UniProt Q9GZY4)
inactive: [1] -0.012 | volasertib 0.025 | [2] -0.013 | epoxomicin -0.021 | [3] 0.014 | [4] -0.035 | [5] -0.047 | rosiglitazone -0.005 | [6] -0.011 | [7] -0.114 | saracatinib 0.065 | sotrastaurin 0.025 | alvocidib 0.012 | Tubastatin A -0.013 | [8] -0.028 | defactinib 0 | rucaparib -0.03 | [9] -0.044 | encorafenib -0.029 | [10] 0.01

CLGN (UniProt O14967)
inactive: [1] -0.001 | volasertib -0.204 | [2] 0.046 | epoxomicin 0.036 | [3] -0.003 | [4] 0.042 | [5] 0.03 | rosiglitazone 0.025 | [6] 0.2 | [7] 0.008 | saracatinib -0.074 | sotrastaurin -0.049 | alvocidib -0.012 | Tubastatin A 0.007 | [8] 0.154 | defactinib -0.003 | rucaparib 0.002 | [9] 0.04 | encorafenib -0.003 | [10] 0.032

CINP isoform 3 (UniProt Q9BW66)
inactive: [1] 0.009 | volasertib 0.065 | [2] -0.01 | epoxomicin 0.038 | [3] -0.015 | [4] 0.093 | [5] -0.01 | rosiglitazone -0.038 | [6] 0.037 | [7] -0.015 | saracatinib -0.037 | sotrastaurin 0.035 | alvocidib 0.04 | Tubastatin A -0.013 | [8] -0.033 | defactinib 0.021 | rucaparib 0.043 | [9] -0.088 | encorafenib -0.01 | [10] -0.02

CKMT2 (UniProt P17540)
inactive: [1] 0.071 | volasertib 0.096 | [2] 0.019 | epoxomicin -0.15 | [3] -0.05 | [4] -0.142 | [5] 0.05 | rosiglitazone -0.079 | [6] -0.082 | [7] 0.062 | saracatinib -0.007 | sotrastaurin 0.28 | alvocidib 0.087 | Tubastatin A -0.028 | [8] -0.03 | defactinib -0.042 | rucaparib -0.069 | [9] -0.027 | encorafenib -0.025 | [10] 0.078

CIAO3 (UniProt Q9H6Q4)
inactive: [1] 0.028 | volasertib -0.133 | [2] 0.007 | epoxomicin -0.038 | [3] -0.004 | [4] -0.018 | [5] 0.027 | rosiglitazone 0.018 | [6] -0.081 | [7] -0.021 | saracatinib -0.06 | sotrastaurin 0.04 | alvocidib -0.091 | Tubastatin A 0.013 | [8] -0.07 | defactinib -0.049 | rucaparib -0.021 | [9] -0.029 | encorafenib 0.004 | [10] -0.03

CLIP1 isoform 2 (UniProt P30622)
inactive: [1] 0.098 | volasertib 0.004 | [2] -0.035 | epoxomicin -0.07 | [3] 0.051 | [4] -0.018 | [5] 0.005 | rosiglitazone -0.047 | [7] -0.268 | sotrastaurin 0.048 | alvocidib -0.055 | [8] -0.115 | defactinib 0.075 | rucaparib 0.017 | encorafenib -0.025 | [10] -0.072

COL15A1 (UniProt P39059)
inactive: [1] 0.02 | volasertib -0.224 | [2] -0.042 | epoxomicin 0.106 | [3] -0.074 | [5] -0.019 | rosiglitazone 0.008 | [6] 0.243 | saracatinib -0.236 | sotrastaurin 0.051 | alvocidib 0.005 | Tubastatin A -0.03 | [8] -0.014 | defactinib -0.015 | rucaparib 0.075 | [9] 0.103 | encorafenib 0.069 | [10] 0.05

CLTC (UniProt Q00610)
inactive: [1] 0.086 | volasertib -0.195 | [2] -0.114 | epoxomicin -0.006 | [3] 0.032 | [4] -0.075 | [5] -0.006 | rosiglitazone -0.019 | [6] 0.014 | [7] 0.173 | saracatinib 0.209 | sotrastaurin -0.083 | alvocidib 0.182 | Tubastatin A -0.046 | [8] 0.174 | defactinib 0.082 | rucaparib 0.029 | [9] -0.036 | encorafenib 0.04 | [10] -0.04

Source: the supplement of paper PMC10849652
